Data taken from ChEMBL document CHEMBL3988442, “University of Dundee, Small-Polar-MMV Screening Library” (2021).

Mtb growth Cornell: 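Whole-cell assay for inhibitors of Mycobacterium tuberculosis growth, labelled Cornell in the record; the read-out is not stated. The concentration is filed as 10 mM, unlikely as a test dose, so the dose is not known. The record gives no direction; compounds strong in two other growth screens of this library score well above the rest, so higher reads as stronger inhibition. Of about 53,000 compounds tested this way, about 900 (1.7%) reached 50% or more in at least one test.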
Mtb heat-shock: 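Assay on Mycobacterium tuberculosis, filed only as a heat shock assay from Cornell; the read-out is not stated. The concentration is filed as 10 mM, unlikely as a test dose, so the dose is not known. Direction is inferred from retests: higher values go with stronger inhibition. Size under these conditions: about 69,000 compounds, about 930 of them at 50% or above in at least one test.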

Each number is a percent effect as filed.
The record does not define 0% and 100%; most values in the screen are far below 50% and negative numbers occur (in some assays of this library far below -100).
This is an unselected part of the compounds tested.
A dash means the value is not listed here; it may have been measured.

CNc1cc(C)nc(N2CCC3(CC2)[C@H](O)C[C@@H]3OCCO)n1 gave Mtb heat-shock: 3.577%. O=C(CNC(=O)C1(c2ccc(F)cc2F)CCC1)Nc1cccnc1 read Mtb growth Cornell: 16.84%; Mtb heat-shock: -10.76%. CN(C)S(=O)(=O)N1CCCC(c2nccnc2-c2cccc(Cl)c2)C1 (centres undefined) read Mtb growth Cornell: 45.18%; Mtb heat-shock: -14.17%. With CN1CCC(CNC(=O)c2ccc3cccc(Cl)c3n2)C1 (centres undefined) the screen gave Mtb growth Cornell: 23.85%; Mtb heat-shock: 26.75%. Result for O=C(NCC(=O)N1CCC2(CC1)OCCO2)c1ccoc1 was Mtb heat-shock: -6.629%. For O=C(CCc1nc(-c2ccccc2)no1)N[C@H]1COC[C@@H]1N1CCCC1 the result was Mtb growth Cornell: -45.54%; Mtb heat-shock: 15.97%.

O=C(CN1CCOC(Cn2cccn2)C1)NCCc1ccc(F)cc1 (centres undefined) gave Mtb growth Cornell: 14.32%; Mtb heat-shock: 18.75%. Result for CCc1nc(C2CCCN2C(=O)c2cc(C3CC3)[nH]n2)no1 (centres undefined) was Mtb heat-shock: 16.32%. With CN1CCC2(CC1)CN(Cc1ccc(C3CCCCO3)o1)CCCN2C (centres undefined) the screen gave Mtb heat-shock: -7.609%. With Cc1ccc(C(CNC(=O)Nc2cn[nH]c2)N2CCOCC2)o1 (centres undefined) the screen gave Mtb heat-shock: -4.062%. O=C(CNC(=O)c1ccccc1Cl)Nc1nccs1 gave Mtb growth Cornell: -11.15%; Mtb heat-shock: -3.081%. Result for COC(=O)N1CCC(Nc2cccc(F)c2C#N)CC1 was Mtb growth Cornell: 16.28%; Mtb heat-shock: 83.06%.

COc1cc(C)c(C(C)NC(=O)NCCCn2cncn2)cc1OC (centres undefined) read Mtb heat-shock: 8.983%. Result for CCC(=O)N1CCC(c2nc3c(c(NC)n2)CN(C)CC3)C1 (centres undefined) was Mtb growth Cornell: 9.296%; Mtb heat-shock: -7.55%. For COc1ccccc1C1CCN(C(=O)CN2C(=O)OC(C)(C)C2=O)CC1 the result was Mtb growth Cornell: 53.49%; Mtb heat-shock: 0.1848%. With CC/N=c1\nc(NCC)nc2n1C(O)(Nc1ccc(C)cc1C)CS2 (centres undefined) the screen gave Mtb growth Cornell: -4.405%; Mtb heat-shock: -5.312%. With CCc1cnc(CN(C(C)=O)C2CCN(CCc3ccccn3)C2)o1 (centres undefined) the screen gave Mtb growth Cornell: -15.05%; Mtb heat-shock: -12.32%. Cc1ccc(N2CCC(C3CCN(CC(C)C)CC3)C2)nn1 (centres undefined) gave Mtb growth Cornell: 8.271%; Mtb heat-shock: -20.12%.

Cc1ccccc1C1CCN(C(=O)CCNC(=O)C(C)(C)C)C1 (centres undefined) gave Mtb growth Cornell: -8.633%; Mtb heat-shock: 11.72%. For COc1ncc(C(F)(F)F)c(C(=O)O)c1Cl the result was Mtb growth Cornell: -26.93%; Mtb heat-shock: -6.098%. N#Cc1ccnc(N2CCC(c3nccn3Cc3cscn3)CC2)c1 gave Mtb growth Cornell: -14.83%; Mtb heat-shock: -23.58%. Result for CN1CCNC(Cc2ccc(-c3ccccc3)cc2)C1=O (centres undefined) was Mtb growth Cornell: -42.51%; Mtb heat-shock: -26.73%. Result for NC(=O)N1CCc2cc(C(=O)O)c(-c3ccsc3)nc2CC1.O=C(O)C(F)(F)F was Mtb growth Cornell: 8.118%; Mtb heat-shock: -14.2%.

3 of the entries, repeated:

compound,Mtb growth Cornell,Mtb heat-shock
COc1ncc(C(F)(F)F)c(C(=O)O)c1Cl,-26.93,-6.098
CCc1cnc(CN(C(C)=O)C2CCN(CCc3ccccn3)C2)o1 (centres undefined),-15.05,-12.32
COc1cc(C)c(C(C)NC(=O)NCCCn2cncn2)cc1OC (centres undefined),-,8.983